Legend:
in vitro = conditions: human
HCT-116 cell line = assay: MTT cell viability assay; conditions: Homo sapiens, HCT-116, read-out: IC50 (cytotoxicity, MTT)

## CN[C@@H]1C[C@H]2O[C@@](C)([C@@H]1OC)n1c3ccccc3c3c4c(c5c6ccccc6n2c5c31)C(=O)NC4 [staurosporine, reference compound]
In vitro
  IC50: 28.9 µM
HCT-116 cell line
  IC50: 7.02 µM
